Earlier results in US7211557B2, “Use of GLP-1 analogs and derivatives administered peripherally in regulation of obesity” (Eli Lilly and Company, priority 1996, dated 2007).
At least one structure is not confirmed: it was looked up by name or label, or the drawing left a doubt.

Test system: STC-1 cells
Details: exposure of STC-1 cells; cited from earlier work

Which “release of GLP-1” value does the source give for C=C[C@@]1(C)CC(=O)[C@]2(O)[C@@]3(C)[C@@H](O)CCC(C)(C)[C@@H]3[C@H](O)[C@H](OC(C)=O)[C@@]2(C)O1 [forskolin] here?
The value was “significant increases in release of GLP-1”.
